# Library screen at single concentrations

Amino acid sequences for entries named in this document (tags omitted). Residues count along the entry.
UniProt P9WNZ1, whole entry: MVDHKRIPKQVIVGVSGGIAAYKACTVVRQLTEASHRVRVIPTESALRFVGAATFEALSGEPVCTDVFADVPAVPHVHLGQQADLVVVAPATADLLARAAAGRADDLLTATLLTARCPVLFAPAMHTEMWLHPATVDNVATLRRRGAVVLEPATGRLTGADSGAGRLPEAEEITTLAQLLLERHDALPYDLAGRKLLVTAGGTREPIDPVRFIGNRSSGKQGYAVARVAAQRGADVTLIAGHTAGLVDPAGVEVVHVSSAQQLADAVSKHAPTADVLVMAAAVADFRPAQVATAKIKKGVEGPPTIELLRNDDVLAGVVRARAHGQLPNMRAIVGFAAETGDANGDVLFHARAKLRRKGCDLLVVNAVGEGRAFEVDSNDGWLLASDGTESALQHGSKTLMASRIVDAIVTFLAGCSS
UniProt I6X8D2, whole entry: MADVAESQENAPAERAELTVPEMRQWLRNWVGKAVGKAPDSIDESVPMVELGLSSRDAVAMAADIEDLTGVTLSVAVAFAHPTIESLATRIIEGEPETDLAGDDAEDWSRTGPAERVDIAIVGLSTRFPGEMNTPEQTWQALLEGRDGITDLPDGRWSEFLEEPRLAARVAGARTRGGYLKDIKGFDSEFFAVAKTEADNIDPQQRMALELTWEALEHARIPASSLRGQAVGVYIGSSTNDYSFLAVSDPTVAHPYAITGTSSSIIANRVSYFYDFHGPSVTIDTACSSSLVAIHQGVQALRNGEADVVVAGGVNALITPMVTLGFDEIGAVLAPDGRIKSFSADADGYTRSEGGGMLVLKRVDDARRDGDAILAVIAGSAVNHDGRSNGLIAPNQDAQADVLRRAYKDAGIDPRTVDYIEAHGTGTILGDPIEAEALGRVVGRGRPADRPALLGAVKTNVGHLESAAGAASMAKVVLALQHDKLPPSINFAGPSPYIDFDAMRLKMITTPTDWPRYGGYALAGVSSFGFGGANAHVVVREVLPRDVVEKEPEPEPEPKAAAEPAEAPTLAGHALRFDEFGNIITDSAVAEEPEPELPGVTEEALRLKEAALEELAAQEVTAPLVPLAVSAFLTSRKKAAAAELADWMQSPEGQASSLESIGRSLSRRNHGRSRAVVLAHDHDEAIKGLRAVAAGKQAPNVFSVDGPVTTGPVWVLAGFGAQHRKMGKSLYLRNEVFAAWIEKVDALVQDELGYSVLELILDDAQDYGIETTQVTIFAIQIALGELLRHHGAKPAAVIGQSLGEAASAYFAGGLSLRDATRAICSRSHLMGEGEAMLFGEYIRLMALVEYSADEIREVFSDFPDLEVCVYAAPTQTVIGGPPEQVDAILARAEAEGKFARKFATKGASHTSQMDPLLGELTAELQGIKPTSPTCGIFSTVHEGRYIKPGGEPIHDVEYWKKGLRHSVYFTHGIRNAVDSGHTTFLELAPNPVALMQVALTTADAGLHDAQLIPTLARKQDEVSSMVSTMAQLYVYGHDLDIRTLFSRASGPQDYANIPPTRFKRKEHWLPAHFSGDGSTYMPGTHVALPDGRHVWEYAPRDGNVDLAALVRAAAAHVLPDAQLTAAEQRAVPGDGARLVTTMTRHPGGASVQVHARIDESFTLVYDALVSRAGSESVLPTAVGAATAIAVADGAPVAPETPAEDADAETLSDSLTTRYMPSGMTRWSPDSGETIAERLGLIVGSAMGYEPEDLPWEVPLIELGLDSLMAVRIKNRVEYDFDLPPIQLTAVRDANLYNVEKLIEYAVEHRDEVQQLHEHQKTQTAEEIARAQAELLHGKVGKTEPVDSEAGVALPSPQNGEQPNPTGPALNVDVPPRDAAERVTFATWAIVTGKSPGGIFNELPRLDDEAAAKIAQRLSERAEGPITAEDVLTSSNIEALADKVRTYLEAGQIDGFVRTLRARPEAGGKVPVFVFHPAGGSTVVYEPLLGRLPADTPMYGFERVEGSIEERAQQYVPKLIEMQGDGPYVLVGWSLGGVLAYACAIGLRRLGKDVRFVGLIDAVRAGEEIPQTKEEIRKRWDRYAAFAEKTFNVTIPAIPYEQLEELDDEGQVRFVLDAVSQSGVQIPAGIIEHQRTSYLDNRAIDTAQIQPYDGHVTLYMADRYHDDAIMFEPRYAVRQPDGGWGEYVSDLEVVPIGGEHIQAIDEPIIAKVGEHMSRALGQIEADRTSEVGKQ
UniProt P9WPC5, whole entry: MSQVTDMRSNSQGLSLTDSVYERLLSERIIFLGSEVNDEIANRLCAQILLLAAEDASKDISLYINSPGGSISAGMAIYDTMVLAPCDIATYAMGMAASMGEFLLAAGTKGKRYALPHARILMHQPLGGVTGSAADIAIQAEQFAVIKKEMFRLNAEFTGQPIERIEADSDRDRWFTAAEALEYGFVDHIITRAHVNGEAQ
UniProt P9WPC3, whole entry partner: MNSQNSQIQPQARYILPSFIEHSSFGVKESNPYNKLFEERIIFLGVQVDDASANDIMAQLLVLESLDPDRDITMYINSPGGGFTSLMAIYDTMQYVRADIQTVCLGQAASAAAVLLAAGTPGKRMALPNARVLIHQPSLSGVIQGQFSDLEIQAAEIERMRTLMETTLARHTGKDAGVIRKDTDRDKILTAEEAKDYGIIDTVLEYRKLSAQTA
UniProt Q4DA54, 1-478: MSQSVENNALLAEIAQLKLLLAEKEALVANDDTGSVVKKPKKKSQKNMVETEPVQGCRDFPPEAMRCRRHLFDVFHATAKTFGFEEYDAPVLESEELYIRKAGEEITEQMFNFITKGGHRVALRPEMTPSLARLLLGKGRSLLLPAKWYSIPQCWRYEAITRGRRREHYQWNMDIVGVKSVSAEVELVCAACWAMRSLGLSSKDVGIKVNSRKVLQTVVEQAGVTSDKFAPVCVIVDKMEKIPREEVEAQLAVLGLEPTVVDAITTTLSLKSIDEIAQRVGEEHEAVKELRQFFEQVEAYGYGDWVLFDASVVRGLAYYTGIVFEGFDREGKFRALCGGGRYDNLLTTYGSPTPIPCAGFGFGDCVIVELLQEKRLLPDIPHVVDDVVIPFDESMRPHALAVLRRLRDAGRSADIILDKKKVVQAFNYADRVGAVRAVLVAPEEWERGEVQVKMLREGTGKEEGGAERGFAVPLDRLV

The filed quantity is “Percent Effect” (%).
How 0% and 100% were set is not recorded. Most values in the screen are low, and negative values occur.
Compounds were drawn at random from those tested, without regard to their results.
A dash means the value is not listed here; it may have been measured.

CoaBC: 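Enzyme assay of CoaBC with a phosphate dye (Biomol Green) read at 650 nm. Target: Coenzyme A biosynthesis protein CoaBC, Mycobacterium tuberculosis (UniProt P9WNZ1). Compounds at 30 µM. Direction is inferred from only a few compounds that gave an IC50; most scored high, so higher reads as stronger inhibition. Most strong results did not repeat in a second test. Size under these conditions: about 67,000 compounds, about 40 of them at 50% or above in at least one test.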
Leishmania in macrophages: 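Cell assay of Leishmania donovani living inside macrophages; the read-out is not stated. Concentration: 30 µM. Direction is inferred from retests: higher values go with stronger inhibition. Of about 69,000 compounds tested this way, about 1,000 (1.5%) reached 50% or more in at least one test.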
Pks13 thioesterase: 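Polyketide synthase Pks13, Mycobacterium tuberculosis (UniProt I6X8D2). Enzyme assay of the thioesterase domain of polyketide synthase 13; the read-out is not stated. Compounds at 30 µM. The record gives no direction; the compounds picked for IC50 retests had high values, so higher reads as stronger inhibition. Size under these conditions: about 67,000 compounds, about 300 of them at 50% or above in at least one test.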
ClpP1P2: 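ClpP1P2, Mycobacterium tuberculosis (UniProt P9WPC5 and UniProt P9WPC3). Protease assay of ClpP1P2, read by the AMC dye that it sets free. Compounds at 50 µM. Higher reads as stronger inhibition, judged from the few compounds that gave an IC50. Most other retested compounds had strongly negative values. Of about 69,000 compounds tested this way, about 10 (0.015%) reached 50% or more in at least one test.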
TcHisRS: 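Enzyme assay of histidyl-tRNA synthetase; the read-out is not stated. Target: Histidine-tRNA ligase, Trypanosoma cruzi CL Brener (UniProt Q4DA54). Concentration: 30 µM. Higher reads as stronger inhibition (inferred: compounds with an IC50 in retests scored well above the rest). About 69,000 compounds were tested under these conditions; 0.045% (about 31) showed 50% or more at least once.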

| SMILES | CoaBC | Leishmania in macrophages | Pks13 thioesterase | ClpP1P2 | TcHisRS |
|---|---|---|---|---|---|
| `CN(Cc1ccco1)[C@@H]1CN(C(=O)c2ccnnc2)[C@@H]2CCCO[C@H]12` | -0.2151 | - | -19.86 | 1.069 | 4.132 |
| `CCN(CC1CCCO1)C(=O)Nc1ccc(OC)c(C)c1` (stereo not given) | 13.16 | 15.43 | 3.307 | -7.32 | 1.163 |
| `CC(C)Cc1noc(CN2CCN(CCO)CC2)n1` | -1.33 | 24.69 | 0.01099 | 14.17 | 1.901 |
| `CN(C)S(=O)(=O)c1ccc(CN2CCCC2c2cccs2)o1` (stereo not given) | 5.236 | 4.32 | -1.572 | -26.54 | 4.624 |
| `CC(CS(C)(=O)=O)NC(=O)N1CC2(CCCC2)c2ccccc21` (stereo not given) | 9.375 | 14.94 | -25.66 | 0.7764 | 2.762 |
| `CCNS(=O)(=O)c1ccc(C)c(C(=O)N(C)Cc2ccccc2C)c1` | -4.487 | 14.42 | -0.1662 | -14.68 | 5.911 |
| `CC1CCN(S(=O)(=O)N2CCc3sccc3C2)CC1` | 0.4963 | 6.716 | 2.11 | 5.544 | 8.671 |
| `Clc1ccc(C2(CNC3=NCCN3)CC2)cc1` | -20.29 | - | -20.11 | 3.933 | 1.064 |
| `Cc1ccc(C(=O)N2Cc3c(CN4CCCCC4)nn(C)c3C2)o1.O=C(O)C(F)(F)F` | - | 22.39 | - | - | - |
| `CCNC(=O)C1CCN(Cc2ccccc2OCC(F)(F)F)CC1` | -5.732 | -14.3 | -37.57 | 1.69 | 4.972 |
| `O=S(=O)(N1CCCCCC1)N1CCc2sccc2C1` | -4.218 | 7.514 | 4.819 | 7.949 | 12.14 |
| `CC(O)CN1CCN(C(=O)c2cc3ccccc3n2C)CC1` (stereo not given) | -8.602 | 10.31 | -17.72 | -6.64 | 3.429 |
| `CCn1ccc(NC(=O)CCc2c(C)noc2C)n1` | 1.699 | 5.227 | 1.749 | -2.011 | 6.931 |
| `CCc1noc(C2CCCCN2C(=O)c2cc(C)oc2C)n1` (stereo not given) | -5.774 | -92.24 | -4.976 | 14.04 | 5.217 |
| `COCc1nc2cc(NCc3ccc(CO)o3)ccc2o1` | -1.984 | -8.308 | 20.37 | -6.132 | 8.621 |
| `CSCC[C@H](NC(C)=O)c1nc(Cc2ccccc2)n[nH]1` | 14.14 | -8.59 | 7.6 | 6.938 | 1.064 |
| `N#Cc1ccc(NCCCOCC2CCCO2)c(F)c1` (stereo not given) | 2.174 | 11.43 | 6.51 | 0.008171 | 6.952 |
| `COc1cccc(CN(C)C(=O)NCc2c(C)cc(C)[nH]c2=O)c1` | 1.434 | 23.89 | -13.74 | -6.798 | 5.78 |
| `Cc1ccc(C(=O)NC2CC2)c(-n2cnnn2)c1C` | 1.687 | -29.12 | 5.472 | 1.426 | -1.98 |
| `O=C(O)C(F)(F)F.c1cnc(NC2COC3(CCN(Cc4ccoc4)CC3)C2)nc1` (stereo not given) | - | -41.72 | - | - | - |
| `Cc1cc(CN2C[C@@H]3CN(C(=O)c4ccco4)CCO[C@@H]3C2)no1` | 2.832 | - | -37.06 | -9.69 | 4.372 |
| `O=S(=O)(C1CC1)N1CC[C@H]2OCC[C@@]2(COc2ncccc2F)C1` | 8.879 | - | -34.87 | -11.68 | 5.435 |
| `Cc1cnc(CN(C)Cc2cccc(OC(F)(F)F)c2)cn1` | 7.771 | 9.448 | -11.76 | -6.825 | -4.972 |
| `CN(C)Cc1ccc(C(=O)N2CCCC(n3cccn3)C2)cc1` (stereo not given) | -6.25 | -1.565 | -8.884 | 7.907 | 3.261 |
| `COc1ccc(C(C)NCc2nnc(C)s2)cc1F` (stereo not given) | 0.2457 | 13.85 | 2.804 | 1.266 | 3.529 |
| `CCN(c1ccsc1C(=O)N1CCC(C)CC1)S(=O)(=O)c1ccccc1` | -0.8906 | -13.59 | 8.477 | 6.541 | 10.1 |
| `CCCNC(=O)N1CCCC2(CCC(=O)N(CCc3c[nH]cn3)C2)C1` (stereo not given) | -3.1 | 22.25 | -28.44 | 10.59 | 0.9901 |
| `CCOCCN1C[C@H](C(=O)Nc2cccnc2)[C@@H]2CCO[C@@H]2C1` | 5.172 | - | -5.797 | -1.52 | 5.155 |
| `CCCc1n[nH]c(C2CN(C(=O)c3cc4c(s3)CCC4)CCO2)n1` (stereo not given) | 3.412 | 6.961 | -12.96 | -13.54 | 2.857 |
| `Cc1cc2n(n1)CC(CNC1CCN(C(=O)C3CC3)CC1)CN2` (stereo not given) | -18.45 | -6.788 | -7.515 | 2.081 | -1.163 |

Repeated from the top, 4 entries:

{"smiles": "CN(Cc1ccco1)[C@@H]1CN(C(=O)c2ccnnc2)[C@@H]2CCCO[C@H]12", "CoaBC": -0.2151, "Pks13 thioesterase": -19.86, "ClpP1P2": 1.069, "TcHisRS": 4.132}
{"smiles": "CCN(CC1CCCO1)C(=O)Nc1ccc(OC)c(C)c1", "stereo": "stereo not given", "CoaBC": 13.16, "Leishmania in macrophages": 15.43, "Pks13 thioesterase": 3.307, "ClpP1P2": -7.32, "TcHisRS": 1.163}
{"smiles": "CC(C)Cc1noc(CN2CCN(CCO)CC2)n1", "CoaBC": -1.33, "Leishmania in macrophages": 24.69, "Pks13 thioesterase": 0.01099, "ClpP1P2": 14.17, "TcHisRS": 1.901}
{"smiles": "CN(C)S(=O)(=O)c1ccc(CN2CCCC2c2cccs2)o1", "stereo": "stereo not given", "CoaBC": 5.236, "Leishmania in macrophages": 4.32, "Pks13 thioesterase": -1.572, "ClpP1P2": -26.54, "TcHisRS": 4.624}

From ChEMBL document CHEMBL3988442, “University of Dundee, Small-Polar-MMV Screening Library” (2021).